Source: publication PMC12044875
Results are given in words; binding and its absence hold for the method and conditions named. In cells and extracts the contact can be indirect. Some results given as binding are weak or reduced against the parent protein; the word gives no strength. Values belong to the binder of their own block, whether it stands above or below them.

Columns and labels:
[1] = biological target: T1, Superoxide dismutase 2 (rat (endogenous in primary rat chondrocytes)) (UniProt P07895); experiment: co-IP; lysate of rat chondrocytes transfected with pcDNA3.1-SP-D and incubated with 3-TYP for 24 h; anti-SP-D and anti-SOD2 antibodies at 4 °C overnight, protein A Sepharose 1 h at 4 °C, western blotting; SP-D and SOD2 each used as bait
T1 sequence: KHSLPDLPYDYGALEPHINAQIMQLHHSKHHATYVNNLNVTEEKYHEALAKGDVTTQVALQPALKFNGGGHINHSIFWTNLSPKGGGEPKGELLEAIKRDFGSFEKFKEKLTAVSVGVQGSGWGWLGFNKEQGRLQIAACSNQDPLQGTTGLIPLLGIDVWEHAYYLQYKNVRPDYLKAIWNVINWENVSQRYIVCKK

Surfactant protein D = biological target: T2, Surfactant protein D (UniProt P35248); experiment: as above
T2 sequence: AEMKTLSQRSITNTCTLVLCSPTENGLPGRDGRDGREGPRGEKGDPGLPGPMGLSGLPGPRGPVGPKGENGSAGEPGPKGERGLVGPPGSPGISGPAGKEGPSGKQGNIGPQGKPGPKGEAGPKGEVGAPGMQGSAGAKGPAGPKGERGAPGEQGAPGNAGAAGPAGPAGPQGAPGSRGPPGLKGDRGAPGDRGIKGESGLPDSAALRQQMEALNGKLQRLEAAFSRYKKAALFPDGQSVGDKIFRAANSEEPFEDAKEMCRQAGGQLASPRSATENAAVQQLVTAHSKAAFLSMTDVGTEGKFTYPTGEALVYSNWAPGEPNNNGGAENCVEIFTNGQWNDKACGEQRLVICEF

- binding [1]: binds
B1: Surfactant protein D (protein, UniProt P35248 20-374)
chain: T2 sequence

- binding (Surfactant protein D): binds
B2: Superoxide dismutase 2 (enzyme, UniProt P07895 25-222)
chain: T1 sequence
